Experimental findings from PubChem BioAssay AID2685 (National Center for Advancing Translational Sciences (NCATS), 2010) are described below.

The list shows a part of the results. Shown are side measurements of this screen, not its main read-out; they come without a call. Most of these compounds were active or inconclusive in the main read-out, so they are no random draw. The note in brackets gives the kind of curve behind each potency; many fits are weak.

A short description of the experiment: qHTS Assay for Lipid Storage Modulators in Drosophila S3 Cells.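 On cell number change: cells counted by Cell Tracker Red CMTPX staining in the red channel.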 As to conditions: BODIPY lipid droplet fluorescence, 18-24 h; for cell number change: measured here: cell count max response, cells fed with added oleic acid. The essentials:
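Laser-scanning cytometry quantifies lipid droplet accumulation (500–530 nm total intensity; droplet/cell object ratio) in oleic acid-fed (400 uM added) Drosophila S3 cells treated with a concentration series. 20 uM Triacsin C defined 100% inhibition.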
For orientation: qHTS replaces the single test concentration by a dilution series.

Setting [1] is: measured here: lipid fluorescence (Fed channel) AC50, cells fed with added oleic acid.
Setting [2] is: measured here: cell number channel AC50, cells fed with added oleic acid.

Usually AC50 stands for the midpoint of the concentration-response curve, whichever way the signal moves. Read a low AC50 as activity at low concentration. As for `CCC(C)(C)NC(=O)CN(C(=O)C(=O)Nc1ccc2c(c1)OCCO2)C1CC1`, the AC50 under setting [1] is 1.03 µM [falling, single point].

Regarding `Cc1ccc(Nc2nc(-c3sc(NC(=O)c4ccccc4)nc3C)cs2)cc1`, the cell number change was -6.39%. Besides, the AC50 under setting [1] is 11.6 µM [rising, partial curve].

In the case of `Cc1ccc(CNC(=O)c2cc3c(=O)n4ccccc4nc3n(Cc3ccco3)c2=N)cc1`, the cell number change is -12.2%. Under setting [1], the AC50 was 0.164 µM [rising, full curve, poor fit].

Regarding `COc1cccc(C(=O)O/N=C(\N)c2ccc(C)cc2)c1`, the AC50 reads like this: under setting [2], 0.82 µM [rising, full curve, poor fit]; under setting [1], 0.58 µM [rising, single point].

For the compound `O=c1cc(CSc2nnc(-c3ccccc3)o2)c2ccccc2[nH]1`, the cell number change is -28.3%. Moreover, the AC50 under setting [1] was 29.1 µM [falling, single point].

Take `O=C(Nc1ccc(F)cc1)Nc1nnc(-c2ccco2)s1`: the cell number change was -21.9%. The AC50 under setting [1] was 16.4 µM [falling, partial curve].

As to `CCc1ccc(O)c(CNCCNCc2cc(CC)ccc2O)c1`, the cell number change is -87.2%. Under setting [2], the half-maximal activity concentration (AC50) is 16.4 µM [falling, partial curve].

Turning to `CC1CCN(c2nc3c(c(=O)n(C)c(=O)n3C)n2CCSc2nc3ccccc3o2)CC1`, the cell number change was -30.4%. Also, the half-maximal activity concentration (AC50) under setting [2] is 1.3 µM [falling, full curve, poor fit]. Moreover, under setting [1], the AC50 is 1.3 µM [falling, full curve].

On to `O=C(CSc1ncnc2c1nnn2Cc1ccccc1F)NCC1CCCO1` (stereo not given), for which the cell number change is -0.215%. Further, under setting [1], the AC50 was 32.6 µM [falling, single point].

Regarding `Cc1ccc(S(=O)(=O)CCNC(=O)Cc2ccc(Cl)cc2)cc1`, the cell number change worked out at 11.1%.

Regarding `Nc1ccc(-c2nc3ccccc3[nH]2)cc1`, under setting [2], the AC50 was 0.103 µM [rising, full curve, poor fit].

With `C/C=C(\C)C(=O)OC1c2c(ccc3ccc(=O)oc23)OC(C)(C)C1OC(C)=O` (stereo not given), the cell number change was -22.3%. Besides, the concentration at half-maximal activity (AC50) under setting [1] was 23.1 µM [falling, single point].

Turning to `Cc1nc(NC(=O)CSc2ccc(-c3nc4ccccc4[nH]3)cn2)sc1C`, the cell number change was -46.7%. Also, the half-maximal activity concentration (AC50) under setting [2] is 29.1 µM [falling, single point]. For the same compound, the AC50 under setting [1] is 29.1 µM [falling, single point].

`O=C(COC(=O)c1c[nH]c(=O)[nH]c1=O)Nc1ccccc1F`: the AC50 under setting [2] was 0.00517 µM [falling, full curve, poor fit].

Take `CCCCCc1nnc(NC(=O)C2COc3ccccc3O2)s1` (stereo not given): the cell number change was 20.9%.

In the case of `Nc1ccc(Sc2nc3ccccc3[nH]2)cc1`, the cell number change came to 31.3%. Further, the AC50 under setting [2] was 0.82 µM [rising, full curve]. For the same compound, under setting [1], the AC50 was 6.51 µM [rising, single point].

Regarding `CCOC(=O)CN1CC23C=CC(O2)C(C(=O)Nc2ccc(C(C)=O)cc2)C3C1=O` (stereo not given), the cell number change is -3.19%. Further, under setting [1], the AC50 is 8.2 µM [falling, partial curve].

Consider `O=C(CSC1=NC2(CCCCC2)N=C1c1ccccc1)Nc1ccc2c(c1)OCCO2`, for which the cell number change amounted to 0.215%. For the same compound, the AC50 under setting [1] was 20.6 µM [falling, single point].

For the compound `CC(=O)N1CCC(C(=O)Nc2ccc(S(=O)(=O)N3CCCCC3)cc2)CC1`, the cell number change is -10.6%. Moreover, the half-maximal activity concentration (AC50) under setting [1] was 7.31 µM [falling, partial curve, poor fit].

As for `Cc1cc2cc(CN(Cc3nnnn3C3CCCCC3)CC3CCCO3)c(=O)[nH]c2cc1C` (stereo not given), the cell number change is -32.8%. The AC50 under setting [2] is 0.116 µM [falling, full curve, poor fit].

Take `C(=N\n1cnnc1)/c1cn(Cc2ccccc2)c2ccccc12`: the cell number change is -20.4%. The concentration at half-maximal activity (AC50) under setting [2] is 0.092 µM [falling, full curve, poor fit]. In addition, the AC50 under setting [1] was 5.17 µM [falling, single point].

Turning to `Nc1nc(NCC2CCCO2)nc(Nc2ccccc2F)c1[N+](=O)[O-]` (stereo not given), the cell number change was found to be 46.9%. The AC50 under setting [2] was 0.82 µM [rising, full curve, poor fit]. In addition, the AC50 under setting [1] was 0.651 µM [rising, full curve].

For `Cn1nnnc1Sc1ncnc2scc(-c3ccc(F)cc3)c12`, the AC50 under setting [1] was 4.61 µM [rising, full curve, poor fit].

`Cc1ccc(C(C)C)cc1OCC(=O)N/N=C/c1ccc2c(c1)OCCO2`: the cell number change was 47.8%. Besides, the AC50 under setting [2] was 9.2 µM [rising, partial curve]. Besides, the AC50 under setting [1] is 7.31 µM [rising, partial curve].

With `Cc1ccc(N(C)C(=O)c2cc(S(=O)(=O)N3CCCC3)cn2C)cc1`, the cell number change was -23.1%. The AC50 under setting [1] was 1.46 µM [falling, partial curve].

With `O=c1c2ccccc2nc(COc2ccccc2)n1/N=C/c1ccc(O)c(O)c1`, the cell number change was -24.2%.

Regarding `O=C(Nc1cccc2ccccc12)NC1CCS(=O)(=O)C1` (stereo not given), the AC50 under setting [1] was 0.00517 µM [rising, full curve, poor fit].

Consider `CN(C)c1ccc(C(c2nnnn2C(C)(C)C)N2CCN(C(=O)c3ccco3)CC2)cc1` (stereo not given), for which the cell number change amounted to 4.11%.

For the compound `COc1ccc(C2=NOC(C(=O)Nc3ccc(C(C)=O)cc3)C2)cc1OC` (stereo not given), the cell number change worked out at 7.76%.

On to `COc1cccc(NC(=S)NC(=O)Cc2ccc(Cl)cc2)c1`, for which the cell number change is -26.5%. Besides, under setting [1], the AC50 is 5.17 µM [rising, partial curve].

Consider `O=C(c1ccco1)N1CCN(C(=O)c2ccc(-c3ccc(Cl)cc3)o2)CC1`, for which the cell number change was -41.1%. Under setting [2], the AC50 was 23.1 µM [falling, single point]. The half-maximal activity concentration (AC50) under setting [1] is 0.366 µM [falling, single point].

Turning to `O=C(O)/C=C/c1ccc([N+](=O)[O-])o1`, the cell number change was -15%. Besides, the AC50 under setting [2] is 0.731 µM [falling, full curve]. Further, under setting [1], the AC50 is 5.8 µM [falling, full curve].

Consider `CCOc1ncccc1C(=O)OCC(=O)c1cc(OC)ccc1OC`, for which the cell number change is 117%.

Turning to `Nc1nc(-c2ccccc2)c(N=Nc2cccc3ccccc23)s1`, the cell number change is -91.8%. Besides, under setting [2], the AC50 is 20.6 µM [falling, partial curve]. Further, the AC50 under setting [1] was 0.00461 µM [falling, full curve, poor fit].

For the compound `COc1ccc2c(c1OC)C(=O)O[C@@H]2[C@H]1c2c(cc3c(c2OC)OCO3)CCN1C`, the cell number change is -5.13%. For the same compound, the AC50 under setting [1] is 1.46 µM [rising, full curve].

Consider `CN(C)CC(C(=O)c1ccccc1)c1ccccc1` (stereo not given), for which the cell number change is -65.6%. Moreover, the AC50 under setting [2] is 16.4 µM [falling, partial curve]. In addition, under setting [1], the AC50 was 6.51 µM [falling, single point].

In the case of `O=c1sc2ccccc2n1Cc1ccccc1`, the cell number change worked out at 22.7%. Besides, the AC50 under setting [2] was 4.11 µM [rising, full curve, poor fit].

Turning to `COc1cc(/C=C/C(=O)c2cccc([N+](=O)[O-])c2)cc(OC)c1OC`, the cell number change was -57.8%. The AC50 under setting [2] was 2.06 µM [falling, partial curve]. In addition, the AC50 under setting [1] is 16.4 µM [falling, single point].

`CC(C)[C@@H]1COC(c2cccc(C3=N[C@H](C(C)C)CO3)c2)=N1`: the cell number change is -1.94%. For the same compound, the AC50 under setting [1] was 29.1 µM [rising, single point].

Take `O=S(=O)(Nc1ccccc1OC(F)F)c1ccc(S(=O)(=O)N2CCCC2)cc1`: the cell number change was 3.02%. For the same compound, the AC50 under setting [1] was 0.00731 µM [rising, full curve, poor fit].

Take `CCOC(=O)c1c(NC(=O)COc2ccccc2C#N)sc2c1CC(C)(C)NC2(C)C`: the cell number change is -38.6%. Besides, the half-maximal activity concentration (AC50) under setting [2] was 29.1 µM [falling, single point].

Regarding `CSC(=NS(=O)(=O)c1ccc(C)cc1)SC`, the cell number change came to 7.65%. The AC50 under setting [1] is 14.6 µM [rising, partial curve].

Consider `CC(C)COP(=O)(c1ccc(N(C)C)cc1)C(O)c1ccc(Br)cc1` (stereo not given), for which the cell number change was -38.8%. Moreover, under setting [2], the AC50 was 14.6 µM [falling, partial curve]. In addition, the half-maximal activity concentration (AC50) under setting [1] is 9.2 µM [falling, partial curve].

For the compound `CSc1nc2sccc2c(=O)[nH]1`, the cell number change worked out at 25.9%. Further, the AC50 under setting [2] is 3.66 µM [rising, full curve, poor fit].

As to `Cc1c(NS(=O)(=O)c2cc(C(=O)NCC3CCCO3)cc(Cl)c2Cl)c(=O)n(-c2ccccc2)n1C` (stereo not given), the AC50 under setting [2] is 0.13 µM [falling, full curve, poor fit] and the AC50 under setting [1] is 0.651 µM [falling, single point].

For the compound `CC(C)NC(=O)c1ccc2c(c1)N(CC(=O)Nc1ccccc1F)C(=O)C(C)(C)O2`, the cell number change is -8.92%.

In the case of `O=C(CSc1ccccn1)Nc1cccc([N+](=O)[O-])c1`, the cell number change was 50.5%. Moreover, the AC50 under setting [2] was 20.6 µM [rising, single point]. In addition, the AC50 under setting [1] is 20.6 µM [rising, partial curve].

In the case of `COc1cccc(CNC(=O)c2nnn(CC(=O)Nc3c(C)cccc3C)c2N)c1`, the cell number change amounted to 12.2%. Also, under setting [1], the AC50 is 20.6 µM [falling, single point].

As for `COc1ccc(C(C#N)N2N=C(C)CC2(C)C)cc1` (stereo not given), the cell number change is 19.7%. Under setting [1], the AC50 was 0.291 µM [falling, full curve, poor fit].

In the case of `CC1CC(C)(C)NC(=S)N1CCCC(=O)Nc1ccc(Br)cc1` (stereo not given), the cell number change is 34%. Moreover, under setting [2], the concentration at half-maximal activity (AC50) was 2.31 µM [rising, partial curve, poor fit].

On to `Cc1ccccc1-n1nc2c(c1NC(=O)c1c(-c3ccccc3Cl)noc1C)CSC2`, for which the cell number change amounted to 4.32%. The AC50 under setting [1] was 29.1 µM [rising, single point].

On to `COc1cc(CNCCO)cc(Cl)c1OCc1ccc(Cl)cc1Cl`, for which the cell number change is -29.8%. Moreover, the AC50 under setting [2] is 2.06 µM [falling, partial curve, poor fit]. The concentration at half-maximal activity (AC50) under setting [1] is 3.26 µM [falling, single point].

Consider `CN(C(=O)c1cc(-n2cnnc2)ccc1Cl)c1ccccc1`, for which the cell number change is 5.14%. Besides, under setting [1], the AC50 is 23.1 µM [rising, single point].

`Nn1c(SCC(=O)Nc2ccc(OC(F)F)cc2)nnc(Cc2ccccc2)c1=O`: the cell number change was -75%. In addition, the AC50 under setting [2] is 29.1 µM [falling, single point].

For the compound `CCn1c(CSc2nc3ccccc3s2)nnc1SCC(=O)c1ccc(Cl)cc1`, the AC50 under setting [1] is 5.17 µM [rising, single point].

Take `COc1ccc(-c2cc(-c3ccccc3)n3ncnc3n2)cc1`: the cell number change amounted to 36.2%. The AC50 under setting [2] is 0.92 µM [rising, partial curve].

`Cc1ccc(S(=O)(=O)N(C)CC(=O)NNC(=O)Cc2cccc(F)c2)cc1`: the cell number change was -5.76%. In addition, the AC50 under setting [1] is 16.4 µM [falling, single point].
